Results: patent publication US20240165282A1, “CONFORMATIONAL CONSTRAINED SOMATOSTATIN RECEPTOR 3 PEPTIDE LIGANDS AND THEIR CONJUGATES AND USES THEREOF” (STARGET PHARMA LTD., priority 2021, published 2024)
Not every detail of the peptide structures is certain; ends, links or a residue may be inferred. *1 amine or outer side, *2 acyl side, *3 side chain or, on linkers, in order; H or OH if unused. Where a SMILES comes first, the peptide text is derived from it. Bridges are numbered along the chain shown (N, C = ends). [ ]: non-standard residue; d: D form. The star is where a group is joined. DOTA = O=C(O)CN1CCN(CC(=O)O)CCN(CC(=O)*)CCN(CC(=O)O)CC1; N(2-mercaptoethyl)Gly = O=C(CN(CCS[*:3])[*:1])[*:2]

Test system: SSTR3-tGFP-U2OS cells
Assay: Cellular internalization of 177Lu radiolabeled compounds
Type: cell-based, human
Experimental: In order to evaluate the cellular internalization of the ^177Lu radiolabeled SEQ ID NO: 6 in comparison to SEQ ID NO: 19 in SSTR3 transfected human cancer cell line to predict the tumor uptake of the radiolabeled compounds, the following example was performed.
Comparative SSTR3 receptor mediated internalization, was determined by incubation of the cultivate cancer cells with the ^177Lu radiolabeled compounds and determination of cellular uptake following washes of the cell culture. To evaluate the internalization as a receptor mediated process, the same experiments were performed in the presence of high concentration of cold SSTR3 ligands.
U2OS cells grow as a monolayer at +37° C. in a humidified atmosphere (5% CO2, 95% air). U2OS cancer cells are adherent to plastic flasks. […]
The assay was performed as follows: Transfected human osteosarcoma cells SSTR3-tGFP-U2OS were plated in 6 well plate, 24 hours before the assay to have 80-90% confluency at the day of the assay. […] The radioactivity of the cell pellets was counted by gamma counter and represents the cellular uptake as percentage of the administrated radioactivity. The radioactivity readouts of the wash-media were used for mass balance.

C[C@@H](O)[C@@H]1NC(=O)[C@H](CCCCN)NC(=O)[C@@H](Cc2c[nH]c3ccccc23)NC(=O)[C@H](Cc2ccccc2)NC(=O)[C@@H](NC(=O)[C@H](CCCNC(=N)N)NC(=O)[C@@H](Cc2ccccc2)NC(=O)[C@H](Cc2ccccc2)NC(=O)[C@H](Cc2ccccc2)NC(=O)CN2CCN(CC(=O)O)CCN(CC(=O)O)CCN(CC(=O)O)CC2)CSSCCN(CC(N)=O)C(=O)[C@H](Cc2ccccc2)NC1=O [SEQ ID NO: 19, DOTA-Phe^1-Phe^2-D-Phe^3-Arg^4-(Cys^5-Phe^6-D-Trp^7-Lys^8-Thr^9-Phe^1-NTEG^11)-NH2 (cyclo 5-11)] ({DOTA}-FF[dF]RCF[dW]KTF[N(2-mercaptoethyl)Gly]-NH2; disulfide 5-11)
% Total cellular uptake (4 h, + SEQ ID NO: 3 (unlabeled for blocking)): 8.0 ± 0.5% | internalization above the observed internalization of SEQ ID NO: 6 (U2OS SSTR3, 4 h): approximately 50%
